The other results are listed elsewhere or left out.
target: T1, OsSMF1 (Oryza sativa, UniProt Q6ZLB0 1-436); assay: protein-binding microarray (RPBM); PBS, 2% BSA, 51.3 ng/ul salmon testes DNA, 50 uM zinc acetate, 200 nM TF, 25 C, 1 h; high values mean tight binding; conditions: protein: recombinant; tags: N-terminal polyhistidine and DsRed monomer fusion (pET32a); chain copies: 2; label: CyDye5-dUTP incorporated in the synthesized complementary strand; 3' TTTTT single-stranded linker to array surface; dsDNA, one strand shown
T1 sequence: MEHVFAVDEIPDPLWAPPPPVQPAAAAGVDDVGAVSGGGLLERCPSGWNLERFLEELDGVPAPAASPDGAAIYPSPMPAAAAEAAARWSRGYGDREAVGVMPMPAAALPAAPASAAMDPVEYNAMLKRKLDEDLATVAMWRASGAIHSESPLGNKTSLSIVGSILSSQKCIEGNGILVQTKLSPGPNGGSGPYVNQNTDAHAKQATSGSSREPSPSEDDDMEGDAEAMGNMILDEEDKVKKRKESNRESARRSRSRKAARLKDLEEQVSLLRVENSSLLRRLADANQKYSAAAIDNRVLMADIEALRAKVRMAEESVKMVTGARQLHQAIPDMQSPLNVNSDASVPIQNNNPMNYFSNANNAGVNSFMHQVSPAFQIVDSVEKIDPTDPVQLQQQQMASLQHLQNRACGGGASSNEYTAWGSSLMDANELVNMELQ
In short: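 The binding signal is fluorescence intensity per feature, in arbitrary units, read on an Axon 4000B scanner. Polyhistidine- and DsRed-tagged transcription factors (N-terminal fusions) from E. coli BL21-CodonPlus were purified on Ni–NTA and applied at 200 nM for 1 h at 25 °C to a double-stranded, BSA-blocked custom Agilent array in buffer with 50 µM zinc acetate.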

Row | Sequence | binding signal
1 | CTCCTATCCAGCGCCATCCCCACGTGGGCCCCACGTGTCGCGGAGTCACCTAGTGCAG | 15800 fluorescence intensity (a.u.)
2 | GTGATGATTGTTAGTGGATGATGATGTGGCATCTTGTTAACGGAGTCACCTAGTGCAG | 17800 fluorescence intensity (a.u.)
3 | GCCGATCCCCGAGGAGGGCGGCGACGTGGAAGGGGAGGGCCGGAGTCACCTAGTGCAG | 4090 fluorescence intensity (a.u.)
4 | TTGTTTTGTGTGCCCGGGGATGAAGTTCCCCACCATAACACGGAGTCACCTAGTGCAG | 21800 fluorescence intensity (a.u.)
5 | TTCCTCTCCTCTCTCTCTCACACACACTTTCTACTCTCTCCGGAGTCACCTAGTGCAG | 28200 fluorescence intensity (a.u.)
6 | TGGAAGTGAGTTGGGTATGAGCTGGATCGCGTGAAATAGTCGGAGTCACCTAGTGCAG | 4790 fluorescence intensity (a.u.)
7 | TCTTATTTATGTGCATCCCTCGCTATGACTAATCTTGTCTCGGAGTCACCTAGTGCAG | 3540 fluorescence intensity (a.u.)
8 | AGATAAAAGAGTATTTCAATACGGAATGATCTTGCAGCGTCGGAGTCACCTAGTGCAG | 3710 fluorescence intensity (a.u.)
9 | ACCGCAGAGACACCGCGTGGGACCCACGCGCCATCGTGTACGGAGTCACCTAGTGCAG | 3350 fluorescence intensity (a.u.)
10 | TCGGATCTAATTGCCACGTAAACGCCACTTCAATGACATGCGGAGTCACCTAGTGCAG | 6780 fluorescence intensity (a.u.)
11 | TCTGACCCGCCGGTGGCCAAACTCCGCCGCCACCACGAACCGGAGTCACCTAGTGCAG | 3260 fluorescence intensity (a.u.)
12 | GACGGTAACTGCTGCGTCCACTATGACGTGTTCTGTTCGGCGGAGTCACCTAGTGCAG | 9720 fluorescence intensity (a.u.)
13 | CACAATATCAATTTTCTCGCTAAGACATTGACCAGTCAACCGGAGTCACCTAGTGCAG | 3340 fluorescence intensity (a.u.)
14 | AGGGCCCCGGCCCCGGCCTCACGTGGCGGCCGCCCGACCCCGGAGTCACCTAGTGCAG | 6200 fluorescence intensity (a.u.)
15 | ACCTTCTAGTATTCTCCCGTCCAGCGCATCTGGACCGTCCCGGAGTCACCTAGTGCAG | 3410 fluorescence intensity (a.u.)
16 | GAGGAAGAAGAATAGATAATAGAGGCTGACATGTGGGCCCCGGAGTCACCTAGTGCAG | 3260 fluorescence intensity (a.u.)
17 | GTACTATATGACTGGTGTTACTCTCTAGTTTGTATCCAATCGGAGTCACCTAGTGCAG | 3400 fluorescence intensity (a.u.)
18 | GGCTCATCTTATCATCATTGCATCACAACAAATCTACATGCGGAGTCACCTAGTGCAG | 3450 fluorescence intensity (a.u.)
19 | GGTTGGGCGGGCGAGGAGGTGTGCCACGTCAGAATTTTGCCGGAGTCACCTAGTGCAG | 20200 fluorescence intensity (a.u.)
20 | TTTTATTAACTGTAAACGTCACATGTTCTGTCATACGCGTCGGAGTCACCTAGTGCAG | 4910 fluorescence intensity (a.u.)
21 | GTGGTCAAGAGCTTTGTTTTCTTTGTCACTTTTCATTATTCGGAGTCACCTAGTGCAG | 3350 fluorescence intensity (a.u.)
22 | ATTGGATGCTGAATTGATGAGTACATACGTATACGTATACCGGAGTCACCTAGTGCAG | 4160 fluorescence intensity (a.u.)
23 | CAAATTTTAATCCTAGAAAAGCTTATATTTGAAGGAGAAGCGGAGTCACCTAGTGCAG | 31100 fluorescence intensity (a.u.)

Shown as tab-separated lines: entries from further up.
Row	Sequence	binding signal
1	CTCCTATCCAGCGCCATCCCCACGTGGGCCCCACGTGTCGCGGAGTCACCTAGTGCAG	15800 fluorescence intensity (a.u.)
3	GCCGATCCCCGAGGAGGGCGGCGACGTGGAAGGGGAGGGCCGGAGTCACCTAGTGCAG	4090 fluorescence intensity (a.u.)
4	TTGTTTTGTGTGCCCGGGGATGAAGTTCCCCACCATAACACGGAGTCACCTAGTGCAG	21800 fluorescence intensity (a.u.)
8	AGATAAAAGAGTATTTCAATACGGAATGATCTTGCAGCGTCGGAGTCACCTAGTGCAG	3710 fluorescence intensity (a.u.)
21	GTGGTCAAGAGCTTTGTTTTCTTTGTCACTTTTCATTATTCGGAGTCACCTAGTGCAG	3350 fluorescence intensity (a.u.)
